Literature values in patent publication US8415158B2, “Compositions and methods useful for culturing differentiable cells” (ViaCyte, Inc., priority 2006, dated 2013).
Some entries share one result that the patent states for a list of compounds.

Target: ErbB1/1 (EGFR) homodimers and ErbB1/2 heterodimers
Settings: high affinity range; read-out: binding affinity; cited from earlier work

Substance | Kd
hbEGF: heparin binding-EGF | 1 to 100 nM
TGFα: EGF growth factor family member | 1 to 100 nM
